# Laboratory results published in the supplement of paper PMC7666118.
# By UniProt entry, the sequences of proteins in these tests, tags left out. Where a name states a change or a piece, a line headed by the entry shows the natural chain unless it says otherwise.
# UniProt O94906: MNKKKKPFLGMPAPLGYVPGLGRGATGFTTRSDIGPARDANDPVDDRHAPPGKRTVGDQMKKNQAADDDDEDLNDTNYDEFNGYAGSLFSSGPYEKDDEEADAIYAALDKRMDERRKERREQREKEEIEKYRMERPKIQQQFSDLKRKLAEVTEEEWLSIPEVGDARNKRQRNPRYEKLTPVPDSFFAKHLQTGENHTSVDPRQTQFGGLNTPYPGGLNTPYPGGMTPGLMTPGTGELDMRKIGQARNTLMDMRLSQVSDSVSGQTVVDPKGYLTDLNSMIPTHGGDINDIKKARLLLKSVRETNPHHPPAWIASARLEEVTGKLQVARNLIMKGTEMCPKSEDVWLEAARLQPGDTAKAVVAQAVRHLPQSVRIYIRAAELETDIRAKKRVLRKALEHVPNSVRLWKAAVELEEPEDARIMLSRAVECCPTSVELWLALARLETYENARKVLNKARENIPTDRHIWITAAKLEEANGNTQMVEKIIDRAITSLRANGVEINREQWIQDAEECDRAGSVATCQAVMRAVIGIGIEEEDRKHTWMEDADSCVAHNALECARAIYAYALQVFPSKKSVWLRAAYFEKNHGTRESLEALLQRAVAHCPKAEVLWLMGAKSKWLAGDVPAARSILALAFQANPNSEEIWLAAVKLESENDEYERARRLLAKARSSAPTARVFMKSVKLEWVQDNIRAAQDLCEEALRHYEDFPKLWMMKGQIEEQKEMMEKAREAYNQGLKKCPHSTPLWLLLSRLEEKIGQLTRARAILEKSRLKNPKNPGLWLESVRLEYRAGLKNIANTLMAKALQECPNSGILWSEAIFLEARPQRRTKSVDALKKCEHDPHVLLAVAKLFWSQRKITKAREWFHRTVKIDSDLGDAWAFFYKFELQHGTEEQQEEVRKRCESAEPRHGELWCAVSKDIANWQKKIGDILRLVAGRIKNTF
# UniProt Q9H2U2: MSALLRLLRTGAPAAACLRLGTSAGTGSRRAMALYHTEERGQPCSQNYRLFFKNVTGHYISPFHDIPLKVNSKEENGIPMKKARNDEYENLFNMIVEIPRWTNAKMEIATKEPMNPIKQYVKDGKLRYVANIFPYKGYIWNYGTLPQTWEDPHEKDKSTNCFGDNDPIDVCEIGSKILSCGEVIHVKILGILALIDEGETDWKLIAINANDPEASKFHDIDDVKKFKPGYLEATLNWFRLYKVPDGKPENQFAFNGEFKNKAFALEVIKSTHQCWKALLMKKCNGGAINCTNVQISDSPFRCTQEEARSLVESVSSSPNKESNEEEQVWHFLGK
# UniProt Q14289, whole entry, looked up: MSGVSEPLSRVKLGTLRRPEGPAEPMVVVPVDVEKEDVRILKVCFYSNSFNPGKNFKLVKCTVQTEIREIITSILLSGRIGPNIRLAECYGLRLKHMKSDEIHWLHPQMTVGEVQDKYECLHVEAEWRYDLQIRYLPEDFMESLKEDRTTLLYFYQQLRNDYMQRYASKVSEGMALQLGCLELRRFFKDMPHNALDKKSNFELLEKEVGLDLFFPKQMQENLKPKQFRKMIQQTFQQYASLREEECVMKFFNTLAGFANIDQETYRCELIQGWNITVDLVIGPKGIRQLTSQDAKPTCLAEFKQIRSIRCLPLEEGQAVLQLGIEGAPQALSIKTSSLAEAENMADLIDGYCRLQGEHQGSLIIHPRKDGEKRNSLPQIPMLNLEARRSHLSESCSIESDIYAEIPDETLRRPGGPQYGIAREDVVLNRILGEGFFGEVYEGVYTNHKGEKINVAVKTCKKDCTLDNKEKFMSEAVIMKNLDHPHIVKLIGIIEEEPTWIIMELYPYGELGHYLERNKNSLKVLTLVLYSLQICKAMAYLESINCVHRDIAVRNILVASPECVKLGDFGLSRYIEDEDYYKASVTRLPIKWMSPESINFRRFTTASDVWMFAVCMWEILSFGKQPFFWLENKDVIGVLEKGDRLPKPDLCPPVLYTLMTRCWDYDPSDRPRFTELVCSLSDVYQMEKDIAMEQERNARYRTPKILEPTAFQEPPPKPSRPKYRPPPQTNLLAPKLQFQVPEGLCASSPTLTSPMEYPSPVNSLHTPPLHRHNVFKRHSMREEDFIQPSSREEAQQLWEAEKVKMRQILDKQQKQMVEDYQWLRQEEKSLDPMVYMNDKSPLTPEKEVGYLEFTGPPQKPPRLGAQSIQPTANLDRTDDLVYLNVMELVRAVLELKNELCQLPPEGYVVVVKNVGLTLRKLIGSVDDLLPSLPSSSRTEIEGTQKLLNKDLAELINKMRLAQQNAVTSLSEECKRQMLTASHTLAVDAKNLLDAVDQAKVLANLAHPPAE
# UniProt P30405: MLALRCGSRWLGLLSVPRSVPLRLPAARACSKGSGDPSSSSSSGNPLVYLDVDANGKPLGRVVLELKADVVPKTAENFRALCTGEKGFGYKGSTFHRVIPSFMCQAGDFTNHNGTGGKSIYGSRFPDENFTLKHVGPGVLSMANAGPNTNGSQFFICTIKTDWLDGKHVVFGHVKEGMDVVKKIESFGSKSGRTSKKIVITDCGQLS
# UniProt Q14181: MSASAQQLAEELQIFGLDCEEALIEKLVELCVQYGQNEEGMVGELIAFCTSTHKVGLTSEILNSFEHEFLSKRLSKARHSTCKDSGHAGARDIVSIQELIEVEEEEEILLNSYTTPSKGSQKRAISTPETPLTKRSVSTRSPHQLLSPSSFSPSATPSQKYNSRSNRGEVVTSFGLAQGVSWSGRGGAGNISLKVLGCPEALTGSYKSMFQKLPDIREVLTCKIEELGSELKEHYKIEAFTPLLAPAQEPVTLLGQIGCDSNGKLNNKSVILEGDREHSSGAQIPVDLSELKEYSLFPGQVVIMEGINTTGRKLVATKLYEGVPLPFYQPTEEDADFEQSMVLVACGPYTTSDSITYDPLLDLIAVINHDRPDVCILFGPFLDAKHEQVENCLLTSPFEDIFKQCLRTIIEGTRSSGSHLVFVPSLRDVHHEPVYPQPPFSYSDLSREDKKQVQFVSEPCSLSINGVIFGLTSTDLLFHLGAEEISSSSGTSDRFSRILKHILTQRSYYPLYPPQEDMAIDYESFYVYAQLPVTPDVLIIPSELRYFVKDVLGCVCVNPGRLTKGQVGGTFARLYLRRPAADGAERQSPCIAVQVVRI
# UniProt Q8ND30: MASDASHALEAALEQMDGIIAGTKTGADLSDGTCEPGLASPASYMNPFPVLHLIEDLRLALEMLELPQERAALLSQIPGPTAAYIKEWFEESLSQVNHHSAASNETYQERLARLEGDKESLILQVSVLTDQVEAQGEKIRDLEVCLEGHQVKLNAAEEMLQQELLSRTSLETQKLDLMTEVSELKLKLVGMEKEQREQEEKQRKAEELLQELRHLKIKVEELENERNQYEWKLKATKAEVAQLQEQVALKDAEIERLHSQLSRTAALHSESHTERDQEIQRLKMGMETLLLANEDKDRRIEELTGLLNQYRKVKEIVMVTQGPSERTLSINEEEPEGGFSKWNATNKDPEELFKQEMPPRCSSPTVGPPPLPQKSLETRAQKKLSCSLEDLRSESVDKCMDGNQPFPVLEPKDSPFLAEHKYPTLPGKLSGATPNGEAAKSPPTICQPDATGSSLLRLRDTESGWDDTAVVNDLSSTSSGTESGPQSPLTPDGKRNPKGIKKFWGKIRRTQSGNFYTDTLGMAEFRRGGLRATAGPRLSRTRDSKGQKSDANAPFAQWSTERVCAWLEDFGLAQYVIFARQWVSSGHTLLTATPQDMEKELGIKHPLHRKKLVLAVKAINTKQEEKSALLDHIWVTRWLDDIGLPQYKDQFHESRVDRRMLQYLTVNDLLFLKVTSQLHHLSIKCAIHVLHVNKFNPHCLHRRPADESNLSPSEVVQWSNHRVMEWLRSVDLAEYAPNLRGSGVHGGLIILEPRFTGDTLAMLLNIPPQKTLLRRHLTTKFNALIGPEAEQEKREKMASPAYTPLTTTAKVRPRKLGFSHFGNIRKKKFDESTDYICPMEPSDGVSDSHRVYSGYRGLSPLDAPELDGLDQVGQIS
# UniProt P54278: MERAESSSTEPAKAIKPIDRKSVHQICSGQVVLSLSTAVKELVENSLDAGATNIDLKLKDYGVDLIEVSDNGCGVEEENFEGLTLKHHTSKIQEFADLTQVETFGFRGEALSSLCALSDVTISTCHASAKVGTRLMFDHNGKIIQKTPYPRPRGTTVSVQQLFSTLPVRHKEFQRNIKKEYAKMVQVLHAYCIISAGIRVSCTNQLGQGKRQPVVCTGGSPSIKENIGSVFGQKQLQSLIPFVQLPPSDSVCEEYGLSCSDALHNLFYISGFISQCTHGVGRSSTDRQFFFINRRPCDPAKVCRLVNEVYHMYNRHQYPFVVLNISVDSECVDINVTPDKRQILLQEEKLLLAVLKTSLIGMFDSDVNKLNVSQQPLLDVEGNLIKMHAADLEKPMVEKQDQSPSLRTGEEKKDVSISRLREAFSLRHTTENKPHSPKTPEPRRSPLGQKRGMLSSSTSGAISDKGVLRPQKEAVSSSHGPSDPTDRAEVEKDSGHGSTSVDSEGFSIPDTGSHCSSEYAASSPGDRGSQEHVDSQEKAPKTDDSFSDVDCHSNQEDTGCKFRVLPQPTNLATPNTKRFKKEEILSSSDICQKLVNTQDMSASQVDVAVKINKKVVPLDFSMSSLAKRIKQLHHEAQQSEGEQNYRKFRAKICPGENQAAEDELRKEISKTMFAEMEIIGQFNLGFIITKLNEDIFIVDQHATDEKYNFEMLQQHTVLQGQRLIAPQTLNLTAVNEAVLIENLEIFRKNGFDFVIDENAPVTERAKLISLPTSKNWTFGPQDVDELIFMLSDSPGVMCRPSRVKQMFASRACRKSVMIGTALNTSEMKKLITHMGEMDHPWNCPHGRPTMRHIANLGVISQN
# UniProt P14314: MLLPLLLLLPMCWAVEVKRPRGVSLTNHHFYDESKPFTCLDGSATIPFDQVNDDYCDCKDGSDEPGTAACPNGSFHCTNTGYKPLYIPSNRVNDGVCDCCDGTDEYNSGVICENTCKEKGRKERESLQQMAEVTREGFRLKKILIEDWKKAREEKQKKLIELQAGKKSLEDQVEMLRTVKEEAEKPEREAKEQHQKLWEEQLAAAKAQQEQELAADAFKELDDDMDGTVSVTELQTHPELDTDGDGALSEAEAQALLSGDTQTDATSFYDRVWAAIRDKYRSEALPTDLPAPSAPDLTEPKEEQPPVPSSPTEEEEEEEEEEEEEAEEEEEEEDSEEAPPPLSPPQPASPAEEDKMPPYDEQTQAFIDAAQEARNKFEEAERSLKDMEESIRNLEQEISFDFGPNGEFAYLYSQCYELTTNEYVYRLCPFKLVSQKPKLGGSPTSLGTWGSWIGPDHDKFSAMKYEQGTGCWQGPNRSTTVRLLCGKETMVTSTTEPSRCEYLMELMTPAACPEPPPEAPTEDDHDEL
# The list shows a part of the results.
# Compound: COc1ccc(Cn2ccc3cc(C)c(C(=O)NO)cc32)cc1
# Test: dose-dependent thermal stabilisation call (2D-TPP, DLPTP, 10% FDR) (binary (1 = stabilised)); higher = stabilised by the compound
# Settings: system: HL-60 intact cells; concentration range 0.04-10 µM
# Procedure: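 2D thermal proteome profiling in intact HL-60 cells treated with BRD-3811 (0, 0.04, 0.29, 2, 10 uM) for 90 min at 37 C, then heated 3 min at one of 12 temperatures (42-63.9 C). Soluble protein was quantified by TMT10 MS. The value is the DLPTP call of the paper: dose-dependent thermal stabilisation over all temperatures at 10% FDR (F-test of a dose-response against a flat model); one experiment, one call per tested protein.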
row,Target,dose-dependent thermal stabilisation call
1,PRPF6 (UniProt O94906),inactive: 0
2,PPA2 (UniProt Q9H2U2),inactive: 0
3,PTK2B (UniProt Q14289),active: 1
4,PPIF (UniProt P30405),inactive: 0
5,POLA2 (UniProt Q14181),inactive: 0
6,POLR2B (UniProt P30876),inactive: 0
7,PPFIBP2 (UniProt Q8ND30),inactive: 0
8,PMS2 (UniProt P54278),inactive: 0
9,PRKCSH (UniProt P14314),inactive: 0
